Here are results for four compounds from US4008267A, “3,3'-Di(sulfonyloxy-group-containing)substituted benzidine derivatives” (AB Kabi, priority 1974, dated 1977).

SMILES strings stand for the structures. Where only a bound is given, the exact number is not on record here.

The nature of data set [1]: Color development of chromogen-reactive-indicator composition with glucose stock solutions (glucose oxidase/peroxidase).
For data set [2] the following is noted: room temperature; background; cited from earlier work.
Data set [3] can be described thus: Discoloration of / absorption by analyzer tubing immersed in chromogen reagent. The following applies: tubing immersed for 25 hours in reagent composition.
[4] abbreviates: 25° C, 450 nm (o-tolidine 430 nm), pH value 6.5.
[5] abbreviates: 37° C, 450 nm (o-tolidine 430 nm), pH value 6.5.

As for `Cc1cc(-c2ccc(N)c(C)c2)ccc1N` [o-tolidine], the “Time for color development in minutes, 25° C” value (from here on “Time … 25° C”) in data set [1] (setting [4]) was 60 min; in data set [1] (25° C, 630 nm, pH value 4.5) it was 10 min. Further, the “Time for color development in minutes, 37° C” value (“Time … 37° C” below) in data set [1] (setting [5]) was 45 min; in data set [1] (37° C, 630 nm, pH value 4.5), 6 min. Besides, the Color development time in data set [2] was 50 to 60 min.

For the compound `COc1cc(-c2ccc(N)c(OC)c2)ccc1N` [o-dianisidine], the “Time … 25° C” value in data set [1] (setting [4]) was 50 min. For the same compound, the “Time … 37° C” value in data set [1] (setting [5]) amounted to 35 min. Also, in data set [2], the Color development time is 50 to 60 min. The “Discoloration of tube samples” value in data set [3] is listed as “turned brown”.

Take `Cl.Cl.Nc1ccc(-c2ccc(N)c(OCCCC(=O)O)c2)cc1OCCCC(=O)O` [Example 1(d), Gamma, gamma'-(4,4'-diamino-3,3'-biphenyldioxy)dibutyric acid dihydrochloride]: the “Maximum color development at 450 nm” value in data set [1] (0.2 mM chromogen, 25° C) is no more than 25 min; in data set [1] (0.2 mM chromogen, 37° C), no more than 15 min. Further, in data set [1] (setting [4]), the “Time … 25° C” value was 25 min. For the same compound, in data set [1] (setting [5]), the “Time … 37° C” value turned out to be 15 min. Also, the “Discoloration of tube samples” value in data set [3] is “remained colorless”.

Regarding `Nc1ccc(-c2ccc(N)c(OCCCS(=O)(=O)O)c2)cc1OCCCS(=O)(=O)O` [Example 3(b), Gamma,gamma'-(4,4'-diamino-3,3'-biphenyldioxy)dipropane sulfonic acid], the “Maximum color development at 430 to 450 nm” value in data set [1] (0.2 mM chromogen, 430 to 450 nm, 25° C) was no more than 25 min. In addition, the “Time … 25° C” value in data set [1] (setting [4]) was determined as 25 min. In data set [1] (setting [5]), the “Time … 37° C” value was found to be 15 min.
